PubChem BioAssay AID1259254 | NCATS – 2017

Purpose: 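Genome-wide screen for genes that prevent DNA re-replication in cancer cells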 (primary screen)
Cell system: human HCT116 colorectal cancer cells
Reagent: single siRNA against human genes
Duration: 3 days
Read-out: 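Nuclei stained with Hoechst and imaged; cell-cycle phase assigned by DNA content; G2 share scaled per plate, non-targeting siRNA 0%, GMNN siRNA 100%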
Scale: G2 robust z-score and G2 cells, % of GMNN control: higher = more G2 cells, more excess DNA replication; raw share of cells in G2: higher = larger share of cells with G2 DNA content
Call rule: 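An siRNA counts as active if its G2 robust z-score lies at least 5 MADs above the screen median; here such calls match roughly 38% of GMNN control or more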
The whole screen tested about 59,000 reagents; shown is a part drawn at random. In the full data, about 1,550 (2.6%) got an active call. 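G2 share is only a proxy for re-replication; each gene was hit by three separate siRNAs, and active genes were retested.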 Raw values are not corrected between plates. Reagents against one gene are numbered here. The record does not give: the amount of reagent.

target gene | reagent no. | G2 robust z-score | G2 cells, % of GMNN control | raw share of cells in G2 (%) | activity call
EPHB1 | 1 | -0.0907 | 2.33 | 6.38 | inactive
EPHB1 | 2 | 0.425 | 5.96 | 7.42 | inactive
EPHB1 | 3 | -0.988 | -3.98 | 2.62 | inactive
SIGIRR | 1 | -0.926 | -3.55 | 4.18 | inactive
SIGIRR | 2 | -0.342 | 0.563 | 4.55 | inactive
SIGIRR | 3 | -0.732 | -2.18 | 3.43 | inactive
NCALD | 1 | 0.564 | 6.94 | 5.24 | inactive
NCALD | 2 | -0.812 | -2.74 | 4.67 | inactive
NCALD | 3 | 0.34 | 5.36 | 5.32 | inactive
TMEM150C | 1 | 6.67 | 49.9 | 22.9 | active
TMEM150C | 2 | 0.657 | 7.59 | 6.3 | inactive
TMEM150C | 3 | 0.244 | 4.69 | 4.71 | inactive
LINC02909 | 1 | 0.151 | 4.03 | 5.05 | inactive
LINC02909 | 2 | 0.271 | 4.87 | 4.59 | inactive
LINC02909 | 3 | -0.5 | -0.549 | 2.59 | inactive
TIMM17A | 1 | 0.215 | 4.48 | 7.36 | inactive
TIMM17A | 2 | 2.48 | 20.5 | 12.5 | inactive
TIMM17A | 3 | -0.0388 | 2.69 | 4.39 | inactive
TESK2 | 1 | 0.0439 | 3.28 | 6.61 | inactive
TESK2 | 2 | -1.4 | -6.91 | 2.68 | inactive
TESK2 | 3 | 0.769 | 8.38 | 6.37 | inactive
NPAS3 | 1 | 1.12 | 10.9 | 10.2 | inactive
NPAS3 | 2 | 1.01 | 10.1 | 7.92 | inactive
NPAS3 | 3 | -0.459 | -0.265 | 4.13 | inactive
ADCK2 | 1 | -1.02 | -4.23 | 4.27 | inactive
ADCK2 | 2 | 0.32 | 5.22 | 7.09 | inactive
ADCK2 | 3 | 1.29 | 12.1 | 7.55 | inactive
BNIP1 | 1 | -0.363 | 0.41 | 5.22 | inactive
BNIP1 | 2 | -0.0534 | 2.59 | 4.96 | inactive
BNIP1 | 3 | -0.687 | -1.87 | 4.08 | inactive
HOXD10 | 1 | 1.51 | 13.6 | 10.9 | inactive
HOXD10 | 2 | -1.29 | -6.1 | 2.83 | inactive
HOXD10 | 3 | -0.429 | -0.0529 | 4.18 | inactive
OR4A5 | 1 | 0.0323 | 3.19 | 5.77 | inactive
OR4A5 | 2 | 0.316 | 5.19 | 6.57 | inactive
OR4A5 | 3 | 0.543 | 6.79 | 4.23 | inactive
ADAM12 | 1 | -0.458 | -0.256 | 5.47 | inactive
ADAM12 | 2 | 0.48 | 6.34 | 7.15 | inactive
ADAM12 | 3 | -0.672 | -1.76 | 3.25 | inactive
MRPL21 | 1 | -1.22 | -5.59 | 1.55 | inactive
MRPL21 | 2 | -0.318 | 0.729 | 3.38 | inactive
MRPL21 | 3 | -0.682 | -1.83 | 2.61 | inactive
NOAZFP | 1 | 1.67 | 14.7 | 9.47 | inactive
NOAZFP | 2 | 2.55 | 20.9 | 12.5 | inactive
NOAZFP | 3 | -0.0604 | 2.54 | 4.05 | inactive
BRD10 | 1 | -0.211 | 1.48 | 3.23 | inactive
BRD10 | 2 | 1.92 | 16.5 | 9.51 | inactive
BRD10 | 3 | -0.689 | -1.88 | 2.33 | inactive
TLN2-AS2 | 1 | -0.0791 | 2.41 | 4.47 | inactive
TLN2-AS2 | 2 | 1.68 | 14.8 | 7.93 | inactive
TLN2-AS2 | 3 | -0.23 | 1.35 | 3.19 | inactive
COL9A2 | 1 | -1.16 | -5.18 | 1.4 | inactive
COL9A2 | 2 | 1.49 | 13.4 | 11.1 | inactive
COL9A2 | 3 | -0.556 | -0.947 | 2.76 | inactive
COL26A1 | 1 | -0.268 | 1.09 | 3.54 | inactive
COL26A1 | 2 | -0.334 | 0.618 | 3.3 | inactive
COL26A1 | 3 | -0.85 | -3.01 | 2.47 | inactive
MMP28 | 1 | -0.39 | 0.224 | 5.69 | inactive
MMP28 | 2 | 0.542 | 6.78 | 6.71 | inactive
MMP28 | 3 | 0.265 | 4.83 | 6.06 | inactive
VEPH1 | 1 | 0.957 | 9.7 | 8.47 | inactive
VEPH1 | 2 | -0.295 | 0.888 | 4.69 | inactive
VEPH1 | 3 | 0.132 | 3.9 | 3.44 | inactive
RGS3 | 1 | -1.64 | -8.55 | 2.04 | inactive
RGS3 | 2 | 4.44 | 34.2 | 17.7 | inactive
RGS3 | 3 | 3.15 | 25.1 | 12.5 | inactive
DEPDC7 | 1 | 0.893 | 9.25 | 8.01 | inactive
DEPDC7 | 2 | -0.307 | 0.808 | 3.25 | inactive
DEPDC7 | 3 | -0.679 | -1.81 | 2.35 | inactive
GPKOW | 1 | 0.824 | 8.77 | 10.1 | inactive
GPKOW | 2 | 1.94 | 16.6 | 9.43 | inactive
GPKOW | 3 | -0.491 | -0.49 | 4.02 | inactive
ACY1 | 1 | -0.755 | -2.34 | 4.74 | inactive
ACY1 | 2 | -0.787 | -2.57 | 4 | inactive
ACY1 | 3 | -0.25 | 1.21 | 4.36 | inactive
MAP4K2 | 1 | -1.36 | -6.57 | 3.44 | inactive
MAP4K2 | 2 | -0.503 | -0.569 | 5.22 | inactive
MAP4K2 | 3 | -0.549 | -0.893 | 3.71 | inactive
AP2A1 | 1 | 0.992 | 9.95 | 8.61 | inactive
AP2A1 | 2 | 0.704 | 7.92 | 7.42 | inactive
AP2A1 | 3 | 0.265 | 4.83 | 5.79 | inactive
PIP5K1B | 1 | -1.42 | -7.03 | 3.29 | inactive
PIP5K1B | 2 | -0.726 | -2.14 | 4.69 | inactive
PIP5K1B | 3 | -0.0114 | 2.89 | 5.04 | inactive
ZNF560 | 1 | -0.0723 | 2.46 | 3.94 | inactive
ZNF560 | 2 | -0.669 | -1.74 | 2.56 | inactive
ZNF560 | 3 | -0.476 | -0.381 | 3.39 | inactive

As entered above:
Result of TIMM17A #1 in “raw share of cells in G2 (%)”: 7.36
Result of COL26A1 #1 under “G2 cells, % of GMNN control”: 1.09
For “G2 cells, % of GMNN control”, RGS3 #2 shows 34.2
Result for BNIP1 #3 in “raw share of cells in G2 (%)”: 4.08
Under “activity call”, ACY1 #1 reads inactive
For “raw share of cells in G2 (%)”, COL9A2 #1 has 1.4
